Data published in the supplement of paper PMC12819154, “High-throughput peptide-centric local stability assay extends protein–ligand identification to membrane proteins, tissues and bacteria” (Nature Structural & Molecular Biology, 2025).
Some of the results follow. Small differences around the control level are noise.

By UniProt entry, the sequences of proteins in these tests, tags left out. Where a name states a change or a piece, a line headed by the entry shows the natural chain unless it says otherwise.
UniProt Q9BVA1, whole entry: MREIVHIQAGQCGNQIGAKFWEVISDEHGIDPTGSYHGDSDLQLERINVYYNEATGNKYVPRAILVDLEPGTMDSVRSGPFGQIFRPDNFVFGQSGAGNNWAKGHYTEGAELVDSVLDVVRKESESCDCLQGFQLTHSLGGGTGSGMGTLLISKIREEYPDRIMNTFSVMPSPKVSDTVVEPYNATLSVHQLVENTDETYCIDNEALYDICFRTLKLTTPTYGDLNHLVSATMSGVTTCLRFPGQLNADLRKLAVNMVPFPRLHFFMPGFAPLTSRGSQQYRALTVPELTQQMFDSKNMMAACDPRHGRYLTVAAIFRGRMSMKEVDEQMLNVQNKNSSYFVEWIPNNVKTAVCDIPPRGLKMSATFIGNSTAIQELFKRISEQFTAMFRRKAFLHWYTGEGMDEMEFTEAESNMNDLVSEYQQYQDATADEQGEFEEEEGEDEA
UniProt Q9C040: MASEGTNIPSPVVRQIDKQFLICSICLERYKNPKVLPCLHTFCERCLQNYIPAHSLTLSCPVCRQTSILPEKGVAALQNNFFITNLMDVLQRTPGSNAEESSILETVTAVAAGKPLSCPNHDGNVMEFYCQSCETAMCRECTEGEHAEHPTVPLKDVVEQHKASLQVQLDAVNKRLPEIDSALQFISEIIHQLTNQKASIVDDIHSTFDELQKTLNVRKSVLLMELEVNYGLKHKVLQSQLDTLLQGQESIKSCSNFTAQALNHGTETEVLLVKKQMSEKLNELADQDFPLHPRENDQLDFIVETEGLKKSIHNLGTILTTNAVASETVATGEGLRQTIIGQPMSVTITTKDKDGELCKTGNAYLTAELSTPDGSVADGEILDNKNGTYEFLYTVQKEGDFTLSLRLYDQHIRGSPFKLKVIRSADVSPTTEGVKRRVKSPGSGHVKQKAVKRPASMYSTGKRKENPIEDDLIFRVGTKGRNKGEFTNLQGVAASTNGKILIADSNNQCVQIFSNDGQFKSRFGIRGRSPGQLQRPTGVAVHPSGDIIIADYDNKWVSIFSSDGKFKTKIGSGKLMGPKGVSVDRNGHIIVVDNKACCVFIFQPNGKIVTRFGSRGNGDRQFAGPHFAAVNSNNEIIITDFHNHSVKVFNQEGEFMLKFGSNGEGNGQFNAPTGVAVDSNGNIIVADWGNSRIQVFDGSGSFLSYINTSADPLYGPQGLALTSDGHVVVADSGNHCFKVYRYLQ
UniProt Q9H0X4: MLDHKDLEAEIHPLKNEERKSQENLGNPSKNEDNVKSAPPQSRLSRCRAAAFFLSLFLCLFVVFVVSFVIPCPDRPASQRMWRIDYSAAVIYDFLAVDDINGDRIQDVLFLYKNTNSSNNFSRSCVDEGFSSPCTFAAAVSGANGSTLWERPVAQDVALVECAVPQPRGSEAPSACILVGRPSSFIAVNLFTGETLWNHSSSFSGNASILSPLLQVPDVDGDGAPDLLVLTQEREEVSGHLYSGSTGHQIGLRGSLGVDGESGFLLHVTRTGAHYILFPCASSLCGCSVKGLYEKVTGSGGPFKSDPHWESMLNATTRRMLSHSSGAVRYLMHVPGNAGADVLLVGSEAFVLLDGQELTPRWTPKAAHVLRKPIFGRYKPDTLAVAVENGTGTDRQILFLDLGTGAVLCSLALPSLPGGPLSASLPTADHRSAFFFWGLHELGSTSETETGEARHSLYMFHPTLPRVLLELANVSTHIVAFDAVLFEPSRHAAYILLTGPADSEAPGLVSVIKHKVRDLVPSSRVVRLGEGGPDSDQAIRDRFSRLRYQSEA
UniProt Q9GZZ9, whole entry: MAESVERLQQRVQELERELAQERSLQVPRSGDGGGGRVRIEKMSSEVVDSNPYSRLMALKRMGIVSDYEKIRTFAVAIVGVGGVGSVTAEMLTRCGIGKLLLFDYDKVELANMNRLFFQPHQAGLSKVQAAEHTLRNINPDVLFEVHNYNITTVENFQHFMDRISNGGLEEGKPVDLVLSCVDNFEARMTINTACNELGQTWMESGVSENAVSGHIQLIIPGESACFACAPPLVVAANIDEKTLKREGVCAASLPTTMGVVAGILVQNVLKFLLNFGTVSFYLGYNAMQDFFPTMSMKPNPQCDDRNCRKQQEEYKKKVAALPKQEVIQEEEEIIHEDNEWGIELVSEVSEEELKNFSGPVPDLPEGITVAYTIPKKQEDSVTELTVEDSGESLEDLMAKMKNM
UniProt Q9BWC9: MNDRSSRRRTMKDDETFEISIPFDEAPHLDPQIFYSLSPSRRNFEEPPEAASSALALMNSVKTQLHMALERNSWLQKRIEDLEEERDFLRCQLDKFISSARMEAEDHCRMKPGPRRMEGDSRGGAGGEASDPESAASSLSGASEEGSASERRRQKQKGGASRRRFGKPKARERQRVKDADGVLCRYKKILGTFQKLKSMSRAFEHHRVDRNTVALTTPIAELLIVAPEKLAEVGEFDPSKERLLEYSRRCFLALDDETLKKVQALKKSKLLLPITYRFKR
UniProt Q9BWU1: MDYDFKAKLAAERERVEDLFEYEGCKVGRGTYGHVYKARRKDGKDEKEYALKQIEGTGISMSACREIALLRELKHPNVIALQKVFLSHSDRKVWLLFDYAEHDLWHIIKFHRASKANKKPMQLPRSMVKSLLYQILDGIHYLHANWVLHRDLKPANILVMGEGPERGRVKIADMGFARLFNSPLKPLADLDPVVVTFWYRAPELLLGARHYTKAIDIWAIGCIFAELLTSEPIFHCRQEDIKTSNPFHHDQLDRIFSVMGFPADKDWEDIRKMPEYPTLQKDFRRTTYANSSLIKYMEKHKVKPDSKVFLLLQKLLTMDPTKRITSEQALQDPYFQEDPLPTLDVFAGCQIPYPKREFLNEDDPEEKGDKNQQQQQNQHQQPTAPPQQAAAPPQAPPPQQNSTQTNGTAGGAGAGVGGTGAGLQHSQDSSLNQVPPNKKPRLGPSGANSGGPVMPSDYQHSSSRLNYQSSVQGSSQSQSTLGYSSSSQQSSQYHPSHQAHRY
UniProt Q9BX66: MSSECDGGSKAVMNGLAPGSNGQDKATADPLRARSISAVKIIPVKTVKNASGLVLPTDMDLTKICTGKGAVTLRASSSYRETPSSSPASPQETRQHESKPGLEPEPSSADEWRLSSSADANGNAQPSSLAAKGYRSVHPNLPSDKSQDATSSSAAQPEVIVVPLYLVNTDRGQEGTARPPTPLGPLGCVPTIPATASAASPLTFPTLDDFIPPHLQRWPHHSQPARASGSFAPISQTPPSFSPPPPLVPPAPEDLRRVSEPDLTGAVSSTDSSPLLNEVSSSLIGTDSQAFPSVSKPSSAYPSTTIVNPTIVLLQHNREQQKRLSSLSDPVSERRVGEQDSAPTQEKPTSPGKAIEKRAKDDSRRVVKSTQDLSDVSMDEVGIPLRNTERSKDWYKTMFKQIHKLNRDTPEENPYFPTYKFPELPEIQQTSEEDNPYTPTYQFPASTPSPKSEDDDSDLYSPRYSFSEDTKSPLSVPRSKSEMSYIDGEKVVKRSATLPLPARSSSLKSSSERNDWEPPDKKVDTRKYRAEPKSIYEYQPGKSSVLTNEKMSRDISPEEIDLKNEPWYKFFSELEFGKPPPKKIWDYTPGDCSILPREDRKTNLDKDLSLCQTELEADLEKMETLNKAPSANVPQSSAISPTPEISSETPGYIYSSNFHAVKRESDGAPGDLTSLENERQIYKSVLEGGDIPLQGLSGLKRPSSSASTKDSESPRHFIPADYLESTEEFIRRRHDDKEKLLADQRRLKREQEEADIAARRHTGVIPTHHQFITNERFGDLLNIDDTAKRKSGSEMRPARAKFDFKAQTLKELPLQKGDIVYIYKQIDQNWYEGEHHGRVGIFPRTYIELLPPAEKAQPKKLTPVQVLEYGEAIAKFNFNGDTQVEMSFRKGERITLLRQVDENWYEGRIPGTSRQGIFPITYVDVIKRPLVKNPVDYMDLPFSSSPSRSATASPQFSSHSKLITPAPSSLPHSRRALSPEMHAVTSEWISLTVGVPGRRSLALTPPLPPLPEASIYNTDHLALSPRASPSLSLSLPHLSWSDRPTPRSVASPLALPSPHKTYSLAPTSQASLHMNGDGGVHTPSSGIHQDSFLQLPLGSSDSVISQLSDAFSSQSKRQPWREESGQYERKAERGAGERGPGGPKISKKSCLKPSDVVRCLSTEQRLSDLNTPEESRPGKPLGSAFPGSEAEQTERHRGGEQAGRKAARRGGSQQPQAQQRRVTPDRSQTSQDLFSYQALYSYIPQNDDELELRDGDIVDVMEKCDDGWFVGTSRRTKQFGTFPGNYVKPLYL
UniProt Q9C035: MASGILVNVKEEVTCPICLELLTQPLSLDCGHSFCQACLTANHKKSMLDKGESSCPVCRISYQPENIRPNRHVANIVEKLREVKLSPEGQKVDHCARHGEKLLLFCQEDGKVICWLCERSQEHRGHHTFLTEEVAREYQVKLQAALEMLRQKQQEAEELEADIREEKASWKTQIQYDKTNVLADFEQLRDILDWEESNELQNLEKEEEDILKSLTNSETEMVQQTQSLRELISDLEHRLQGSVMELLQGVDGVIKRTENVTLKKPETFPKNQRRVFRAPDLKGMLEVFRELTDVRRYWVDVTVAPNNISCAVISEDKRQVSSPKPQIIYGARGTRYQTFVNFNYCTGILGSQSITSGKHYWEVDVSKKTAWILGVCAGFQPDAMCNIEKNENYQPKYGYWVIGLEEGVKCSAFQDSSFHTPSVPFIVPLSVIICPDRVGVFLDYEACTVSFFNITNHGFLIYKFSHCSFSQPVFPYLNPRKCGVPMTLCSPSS
UniProt Q9BWD1: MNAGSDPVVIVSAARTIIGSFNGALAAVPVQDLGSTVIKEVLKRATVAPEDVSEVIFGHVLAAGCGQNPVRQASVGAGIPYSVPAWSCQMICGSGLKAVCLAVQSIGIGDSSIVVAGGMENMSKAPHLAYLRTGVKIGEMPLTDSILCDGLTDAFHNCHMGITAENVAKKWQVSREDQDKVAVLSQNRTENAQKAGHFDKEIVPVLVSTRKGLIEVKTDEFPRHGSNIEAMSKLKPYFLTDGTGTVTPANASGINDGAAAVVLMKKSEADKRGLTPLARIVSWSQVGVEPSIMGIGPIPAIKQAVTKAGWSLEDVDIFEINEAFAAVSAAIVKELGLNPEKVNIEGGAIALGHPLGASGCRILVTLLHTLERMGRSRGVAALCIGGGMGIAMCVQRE
UniProt Q9BYG5: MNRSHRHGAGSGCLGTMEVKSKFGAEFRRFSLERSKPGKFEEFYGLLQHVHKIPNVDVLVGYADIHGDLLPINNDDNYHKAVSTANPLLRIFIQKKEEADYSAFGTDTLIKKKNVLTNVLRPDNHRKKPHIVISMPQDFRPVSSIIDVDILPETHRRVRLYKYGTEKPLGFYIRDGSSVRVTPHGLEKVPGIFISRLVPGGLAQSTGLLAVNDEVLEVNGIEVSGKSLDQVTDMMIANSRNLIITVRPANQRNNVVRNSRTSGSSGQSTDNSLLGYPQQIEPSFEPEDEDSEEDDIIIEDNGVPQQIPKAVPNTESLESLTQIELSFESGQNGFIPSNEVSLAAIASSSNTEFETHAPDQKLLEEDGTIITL
UniProt Q9H0Q0: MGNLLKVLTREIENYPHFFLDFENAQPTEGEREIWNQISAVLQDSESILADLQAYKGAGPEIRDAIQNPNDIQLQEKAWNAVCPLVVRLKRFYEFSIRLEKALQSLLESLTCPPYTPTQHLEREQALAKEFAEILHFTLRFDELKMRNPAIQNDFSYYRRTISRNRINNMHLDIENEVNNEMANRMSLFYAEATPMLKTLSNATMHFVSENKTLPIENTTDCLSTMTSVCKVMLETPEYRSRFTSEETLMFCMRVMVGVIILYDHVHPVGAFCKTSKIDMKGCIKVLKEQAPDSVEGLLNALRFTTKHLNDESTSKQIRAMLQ
UniProt Q9H0J9: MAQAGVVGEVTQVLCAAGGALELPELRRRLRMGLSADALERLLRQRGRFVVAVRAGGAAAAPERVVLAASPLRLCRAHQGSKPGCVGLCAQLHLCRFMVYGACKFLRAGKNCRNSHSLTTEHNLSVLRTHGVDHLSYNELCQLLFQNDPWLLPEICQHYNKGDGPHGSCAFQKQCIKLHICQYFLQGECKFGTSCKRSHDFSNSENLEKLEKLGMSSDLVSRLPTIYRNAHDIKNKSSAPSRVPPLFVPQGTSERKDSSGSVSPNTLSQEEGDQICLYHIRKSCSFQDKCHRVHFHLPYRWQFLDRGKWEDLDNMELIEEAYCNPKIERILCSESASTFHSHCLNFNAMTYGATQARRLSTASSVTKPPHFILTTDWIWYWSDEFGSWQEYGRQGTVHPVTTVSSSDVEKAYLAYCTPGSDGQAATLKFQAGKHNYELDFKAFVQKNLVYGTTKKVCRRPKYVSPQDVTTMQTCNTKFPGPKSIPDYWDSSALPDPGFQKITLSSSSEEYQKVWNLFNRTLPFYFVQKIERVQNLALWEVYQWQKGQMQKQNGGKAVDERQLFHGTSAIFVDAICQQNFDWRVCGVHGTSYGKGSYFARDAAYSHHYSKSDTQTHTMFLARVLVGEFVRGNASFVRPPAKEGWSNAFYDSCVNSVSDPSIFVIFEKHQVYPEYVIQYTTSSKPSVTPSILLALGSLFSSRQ

The targets below were run with Cc1nc(Nc2ncc(C(=O)Nc3c(C)cccc3Cl)s2)cc(N2CCN(CCO)CC2)n1 [dasatinib] (assay: log2 fold change of tryptic peptide abundance, ligand vs vehicle (limited proteolysis) (log2 ratio); higher = more trypsin-susceptible (destabilized)). Conditions: ligand concentration: 5 uM; sample: K562 cleared lysate.
“UniProt Q9BVG3 (peptide sequence: TFAEPALAPSLK, peptide start residue: 56)” gave a log2 fold change of 0.119.
With “UCK2 (peptide sequence: TLKEITEGK, peptide start residue: 97) (UniProt Q9BZX2)” the log2 fold change was -0.327.
In the case of “SPATA5L1 (peptide sequence: GVLLYGPPGCAK, peptide start residue: 500) (UniProt Q9BVQ7)”, the log2 fold change is reported as -0.174.
“UniProt Q9BVA1 (peptide sequence: INVYYNEATGNKYVPR, peptide start residue: 47)” showed a log2 fold change of 0.0812.
With “CHAC1 (peptide sequence: GFSGHNLEYLLR, peptide start residue: 170) (UniProt Q9BUX1)” the log2 fold change was -0.189.
“OSBPL1A (peptide sequence: VEGYIQDK, peptide start residue: 756) (UniProt Q9BXW6)” was tested, and the log2 fold change was -0.0689.
“B7Z5R0 (peptide sequence: EGTGALEKPDPVAAGSPGLK, peptide start residue: 116) (UniProt Q9BV97)” gave a log2 fold change of 0.0844.
In the case of “PANK2 (peptide sequence: ASSASVPAVGASAEGTRR, peptide start residue: 167) (UniProt Q9BZ23)”, the log2 fold change is reported as 0.223.
“MAP1LC3B (peptide sequence: RTFEQRVEDVR, peptide start residue: 11) (UniProt Q9GZQ8)” was tested, and the log2 fold change was 0.0608.
In the case of “HDHD2 (peptide sequence: TFFLEALR, peptide start residue: 183) (UniProt Q9H0R4)”, the log2 fold change is reported as -0.309.
For “XRN2 (peptide sequence: GVGAEPLLPWNR, peptide start residue: 884) (UniProt Q9H0D6)”, the log2 fold change was -0.206.
Work on “FAM117A (peptide sequence: RGCSPPAPAGSPR, peptide start residue: 26) (UniProt Q9C073)” yielded a log2 fold change of -0.224.
Target “UniProt Q9C040 (peptide sequence: NGHIIVVDNK, peptide start residue: 586)” has a log2 fold change of -0.472.
Target “UniProt Q9H0X4 (peptide sequence: KPIFGRYK, peptide start residue: 372)” has a log2 fold change of 0.0843.
“DSCC1 (peptide sequence: TRDEVDATLQIAK, peptide start residue: 4) (UniProt Q9BVC3)” gave a log2 fold change of 0.136.
“UBA5 (peptide sequence: MGIVSDYEK, peptide start residue: 62) (UniProt Q9GZZ9)” showed a log2 fold change of -0.0614.
For “FTO (peptide sequence: ILIGNPGCTYK, peptide start residue: 97) (UniProt Q9C0B1)”, the log2 fold change was -0.373.
“MRPL37 (peptide sequence: ESLLLQVR, peptide start residue: 216) (UniProt Q9BZE1)” gave a log2 fold change of 0.58.
“UniProt Q9BWC9 (peptide sequence: MEAEDHCR, peptide start residue: 102)” was tested, and the log2 fold change was 0.311.
“TNKS1BP1 (peptide sequence: SPAECREEHSK, peptide start residue: 228) (UniProt Q9C0C2)” showed a log2 fold change of -0.853.
With “BTBD2 (peptide sequence: EAAYNWQASKPTVQER, peptide start residue: 91) (UniProt Q9BX70)” the log2 fold change was 0.504.
In the case of “POLR3F (peptide sequence: SNTGLLYR, peptide start residue: 68) (UniProt Q9H1D9)”, the log2 fold change is reported as -0.0893.
Work on “UniProt Q9BWU1 (peptide sequence: DLKPANILVMGEGPER, peptide start residue: 151)” yielded a log2 fold change of -0.382.
“SORBS1 (peptide sequence: SVLEGGDIPLQGLSGLKRPSSSASTK, peptide start residue: 684) (UniProt Q9BX66)” was tested, and the log2 fold change was -0.172.
Work on “UniProt Q9H115 (peptide sequence: YSAKDYFFK, peptide start residue: 200)” yielded a log2 fold change of -0.897.
“UniProt Q9BVL4 (peptide sequence: VMHANNPK, peptide start residue: 586)” showed a log2 fold change of -0.31.
“TRIM5 (peptide sequence: HVANIVEK, peptide start residue: 72) (UniProt Q9C035)” was tested, and the log2 fold change was 0.0639.
Work on “CYSTM1 (peptide sequence: TTVYVVEDQRR, peptide start residue: 61) (UniProt Q9H1C7)” yielded a log2 fold change of 0.0258.
Work on “MRPL20 (peptide sequence: ITAASQEHGLK, peptide start residue: 72) (UniProt Q9BYC9)” yielded a log2 fold change of -0.777.
Target “ACAT2 (peptide sequence: ILVTLLHTLER, peptide start residue: 362) (UniProt Q9BWD1)” has a log2 fold change of -0.1.
With “PCGF6 (peptide sequence: LVINLEER, peptide start residue: 198) (UniProt Q9BYE7)” the log2 fold change was -0.0319.
For “PARD6B (peptide sequence: YGTEKPLGFYIR, peptide start residue: 163) (UniProt Q9BYG5)”, the log2 fold change was -0.0989.
In the case of “UniProt Q9BXP5 (peptide sequence: MLDAAVIK, peptide start residue: 249)”, the log2 fold change is reported as -0.194.
Work on “ENKD1 (peptide sequence: LLQSQSQLLR, peptide start residue: 291) (UniProt Q9H0I2)” yielded a log2 fold change of -0.231.
Target “GZF1 (peptide sequence: AGPEEEEEEEEEDEEGEKKK, peptide start residue: 295) (UniProt Q9H116)” has a log2 fold change of 0.388.
With “FAM49A (peptide sequence: VMLETPEYR, peptide start residue: 233) (UniProt Q9H0Q0)” the log2 fold change was -0.0712.
“PARP12 (peptide sequence: LCRAHQGSK, peptide start residue: 74) (UniProt Q9H0J9)” gave a log2 fold change of 0.19.
For “UniProt Q9H0R8 (peptide sequence: KYPDRVPVIVEK, peptide start residue: 24)”, the log2 fold change was -0.16.
